No constants are given. Whether binding was seen depends on the method and setting. Some results given as binding are weak or reduced against the parent protein; the word gives no strength.
How the values were obtained:
[1] = biological target: human apolipoprotein B-100 (human) (UniProt P04114); test: SPIFE cholesterol profile and immunofixation electrophoresis of Lp(a)+ GULO(-/-) mouse sera (FIGS. 6-8)
[2] = biological target: human apolipoprotein B-100 (human) (UniProt P04114); test: SPIFE cholesterol profiling electrophoresis: Lp(a)-cholesterol band only in sera of human Lp(a)+; GULO(-/-) mice
[3] = biological target: human apolipoprotein B-100 (human) (UniProt P04114); test: SPIFE cholesterol profiling electrophoresis of transgenic mouse sera (FIG. 2)

The chains behind the UniProt entries cited, without tags or fusion partners. Residues count along the entry.
UniProt P04114, residues 28-4563: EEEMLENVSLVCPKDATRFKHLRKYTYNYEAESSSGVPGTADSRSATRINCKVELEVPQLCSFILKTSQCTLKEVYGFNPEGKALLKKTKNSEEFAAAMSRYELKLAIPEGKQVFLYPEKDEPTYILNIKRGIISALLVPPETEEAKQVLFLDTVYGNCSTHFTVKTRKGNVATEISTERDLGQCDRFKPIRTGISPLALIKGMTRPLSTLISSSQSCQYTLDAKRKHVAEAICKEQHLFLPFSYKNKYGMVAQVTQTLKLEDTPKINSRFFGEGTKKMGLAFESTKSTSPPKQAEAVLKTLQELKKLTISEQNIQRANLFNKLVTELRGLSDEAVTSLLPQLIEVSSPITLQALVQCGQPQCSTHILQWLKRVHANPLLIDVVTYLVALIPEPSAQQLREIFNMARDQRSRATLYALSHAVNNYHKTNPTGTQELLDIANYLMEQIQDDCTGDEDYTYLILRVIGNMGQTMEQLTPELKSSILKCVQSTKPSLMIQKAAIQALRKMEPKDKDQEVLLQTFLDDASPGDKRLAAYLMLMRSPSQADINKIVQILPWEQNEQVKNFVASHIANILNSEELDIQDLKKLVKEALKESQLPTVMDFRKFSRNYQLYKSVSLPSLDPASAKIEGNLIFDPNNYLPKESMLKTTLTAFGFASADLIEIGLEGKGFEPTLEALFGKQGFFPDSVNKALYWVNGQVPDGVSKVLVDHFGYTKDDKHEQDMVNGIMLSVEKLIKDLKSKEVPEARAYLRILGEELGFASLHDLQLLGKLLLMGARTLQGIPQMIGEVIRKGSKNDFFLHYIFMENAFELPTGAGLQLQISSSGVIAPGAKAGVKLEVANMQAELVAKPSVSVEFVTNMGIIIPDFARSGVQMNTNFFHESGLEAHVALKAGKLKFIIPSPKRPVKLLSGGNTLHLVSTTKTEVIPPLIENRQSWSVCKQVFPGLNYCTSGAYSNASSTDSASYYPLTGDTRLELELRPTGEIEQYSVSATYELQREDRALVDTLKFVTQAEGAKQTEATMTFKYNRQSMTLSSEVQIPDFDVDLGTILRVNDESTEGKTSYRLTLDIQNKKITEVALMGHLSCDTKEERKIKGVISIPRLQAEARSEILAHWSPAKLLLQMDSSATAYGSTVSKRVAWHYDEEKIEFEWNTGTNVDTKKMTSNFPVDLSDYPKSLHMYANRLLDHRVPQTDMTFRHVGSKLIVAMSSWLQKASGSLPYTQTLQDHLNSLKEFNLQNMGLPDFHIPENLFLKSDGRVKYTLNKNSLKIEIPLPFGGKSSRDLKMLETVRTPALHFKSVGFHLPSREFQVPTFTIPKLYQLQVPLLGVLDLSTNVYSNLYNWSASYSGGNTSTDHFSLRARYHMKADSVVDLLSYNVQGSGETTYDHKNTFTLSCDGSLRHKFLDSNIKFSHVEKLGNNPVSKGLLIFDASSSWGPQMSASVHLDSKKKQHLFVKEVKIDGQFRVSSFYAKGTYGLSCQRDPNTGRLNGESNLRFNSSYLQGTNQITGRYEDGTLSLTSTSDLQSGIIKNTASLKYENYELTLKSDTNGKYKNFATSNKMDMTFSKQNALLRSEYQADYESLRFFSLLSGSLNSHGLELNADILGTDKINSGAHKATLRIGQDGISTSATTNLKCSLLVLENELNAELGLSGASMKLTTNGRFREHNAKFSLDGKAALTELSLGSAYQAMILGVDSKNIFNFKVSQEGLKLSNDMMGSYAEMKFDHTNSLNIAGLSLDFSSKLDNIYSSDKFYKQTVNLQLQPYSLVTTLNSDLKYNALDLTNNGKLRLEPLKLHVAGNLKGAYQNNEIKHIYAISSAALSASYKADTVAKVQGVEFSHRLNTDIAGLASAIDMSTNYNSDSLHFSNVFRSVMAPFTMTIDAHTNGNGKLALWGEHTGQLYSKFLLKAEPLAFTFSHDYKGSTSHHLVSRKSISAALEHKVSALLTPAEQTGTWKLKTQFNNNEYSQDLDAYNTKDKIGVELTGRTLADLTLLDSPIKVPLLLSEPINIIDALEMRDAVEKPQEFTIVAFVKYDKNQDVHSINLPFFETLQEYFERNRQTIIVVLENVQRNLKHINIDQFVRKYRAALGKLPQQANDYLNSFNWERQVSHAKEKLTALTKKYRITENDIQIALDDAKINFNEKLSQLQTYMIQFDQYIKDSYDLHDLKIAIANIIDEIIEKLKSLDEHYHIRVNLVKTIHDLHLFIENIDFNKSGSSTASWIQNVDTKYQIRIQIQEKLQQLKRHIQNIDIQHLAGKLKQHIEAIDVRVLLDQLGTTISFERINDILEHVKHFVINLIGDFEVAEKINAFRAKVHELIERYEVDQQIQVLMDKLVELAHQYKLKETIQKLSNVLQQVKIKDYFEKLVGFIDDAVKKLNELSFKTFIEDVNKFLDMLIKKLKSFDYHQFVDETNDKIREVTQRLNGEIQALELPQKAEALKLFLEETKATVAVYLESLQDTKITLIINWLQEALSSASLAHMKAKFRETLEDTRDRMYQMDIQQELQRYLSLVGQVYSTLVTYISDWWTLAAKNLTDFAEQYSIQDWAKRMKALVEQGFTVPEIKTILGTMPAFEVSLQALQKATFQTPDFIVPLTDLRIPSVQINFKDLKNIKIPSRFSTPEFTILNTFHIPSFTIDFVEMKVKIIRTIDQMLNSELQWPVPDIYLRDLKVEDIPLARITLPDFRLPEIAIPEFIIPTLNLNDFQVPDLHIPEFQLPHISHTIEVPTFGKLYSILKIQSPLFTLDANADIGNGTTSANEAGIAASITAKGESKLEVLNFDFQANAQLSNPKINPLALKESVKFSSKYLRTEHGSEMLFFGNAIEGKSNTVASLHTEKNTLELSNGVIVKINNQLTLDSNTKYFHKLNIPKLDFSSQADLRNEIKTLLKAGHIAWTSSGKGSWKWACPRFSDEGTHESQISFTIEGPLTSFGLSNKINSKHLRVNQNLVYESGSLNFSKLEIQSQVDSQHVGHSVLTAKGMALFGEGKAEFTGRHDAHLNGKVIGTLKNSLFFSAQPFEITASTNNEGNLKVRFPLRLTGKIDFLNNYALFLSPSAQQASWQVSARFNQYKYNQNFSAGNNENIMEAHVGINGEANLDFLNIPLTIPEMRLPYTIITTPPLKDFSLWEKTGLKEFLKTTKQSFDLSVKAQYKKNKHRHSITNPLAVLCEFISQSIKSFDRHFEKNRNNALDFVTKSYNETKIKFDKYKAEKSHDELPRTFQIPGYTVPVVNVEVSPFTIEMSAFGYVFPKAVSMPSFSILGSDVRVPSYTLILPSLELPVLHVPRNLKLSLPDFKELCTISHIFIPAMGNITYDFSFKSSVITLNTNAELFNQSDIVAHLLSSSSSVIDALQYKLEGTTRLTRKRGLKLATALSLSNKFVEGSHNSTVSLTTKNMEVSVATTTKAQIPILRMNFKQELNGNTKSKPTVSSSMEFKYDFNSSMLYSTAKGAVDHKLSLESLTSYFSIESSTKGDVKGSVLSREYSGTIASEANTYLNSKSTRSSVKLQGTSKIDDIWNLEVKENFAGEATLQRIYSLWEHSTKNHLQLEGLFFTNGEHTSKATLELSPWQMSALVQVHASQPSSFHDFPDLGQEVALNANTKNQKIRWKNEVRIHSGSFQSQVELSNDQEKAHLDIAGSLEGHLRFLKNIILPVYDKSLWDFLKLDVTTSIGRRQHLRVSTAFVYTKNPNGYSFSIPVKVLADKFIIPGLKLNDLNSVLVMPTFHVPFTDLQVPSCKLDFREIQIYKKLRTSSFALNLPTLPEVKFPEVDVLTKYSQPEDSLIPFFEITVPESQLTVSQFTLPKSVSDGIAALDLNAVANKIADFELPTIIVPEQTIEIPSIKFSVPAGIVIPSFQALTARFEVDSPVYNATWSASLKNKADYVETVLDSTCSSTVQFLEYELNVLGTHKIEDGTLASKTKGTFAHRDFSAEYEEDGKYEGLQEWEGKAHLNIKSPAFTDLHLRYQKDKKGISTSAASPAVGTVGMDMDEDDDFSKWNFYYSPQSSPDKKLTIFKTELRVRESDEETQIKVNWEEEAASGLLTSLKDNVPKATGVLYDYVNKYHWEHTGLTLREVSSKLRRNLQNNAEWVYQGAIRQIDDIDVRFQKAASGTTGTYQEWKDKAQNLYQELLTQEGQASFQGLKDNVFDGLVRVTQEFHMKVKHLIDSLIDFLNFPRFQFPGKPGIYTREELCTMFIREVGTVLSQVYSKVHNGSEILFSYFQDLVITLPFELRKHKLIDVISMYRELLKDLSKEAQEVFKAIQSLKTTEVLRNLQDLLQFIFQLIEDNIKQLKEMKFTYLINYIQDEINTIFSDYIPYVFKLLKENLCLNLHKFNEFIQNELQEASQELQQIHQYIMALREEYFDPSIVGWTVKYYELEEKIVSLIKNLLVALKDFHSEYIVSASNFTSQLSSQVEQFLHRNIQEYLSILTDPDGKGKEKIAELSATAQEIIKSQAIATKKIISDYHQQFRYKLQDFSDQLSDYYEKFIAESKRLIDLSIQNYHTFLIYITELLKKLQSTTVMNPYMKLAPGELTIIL
UniProt P08519, residues 20-2040: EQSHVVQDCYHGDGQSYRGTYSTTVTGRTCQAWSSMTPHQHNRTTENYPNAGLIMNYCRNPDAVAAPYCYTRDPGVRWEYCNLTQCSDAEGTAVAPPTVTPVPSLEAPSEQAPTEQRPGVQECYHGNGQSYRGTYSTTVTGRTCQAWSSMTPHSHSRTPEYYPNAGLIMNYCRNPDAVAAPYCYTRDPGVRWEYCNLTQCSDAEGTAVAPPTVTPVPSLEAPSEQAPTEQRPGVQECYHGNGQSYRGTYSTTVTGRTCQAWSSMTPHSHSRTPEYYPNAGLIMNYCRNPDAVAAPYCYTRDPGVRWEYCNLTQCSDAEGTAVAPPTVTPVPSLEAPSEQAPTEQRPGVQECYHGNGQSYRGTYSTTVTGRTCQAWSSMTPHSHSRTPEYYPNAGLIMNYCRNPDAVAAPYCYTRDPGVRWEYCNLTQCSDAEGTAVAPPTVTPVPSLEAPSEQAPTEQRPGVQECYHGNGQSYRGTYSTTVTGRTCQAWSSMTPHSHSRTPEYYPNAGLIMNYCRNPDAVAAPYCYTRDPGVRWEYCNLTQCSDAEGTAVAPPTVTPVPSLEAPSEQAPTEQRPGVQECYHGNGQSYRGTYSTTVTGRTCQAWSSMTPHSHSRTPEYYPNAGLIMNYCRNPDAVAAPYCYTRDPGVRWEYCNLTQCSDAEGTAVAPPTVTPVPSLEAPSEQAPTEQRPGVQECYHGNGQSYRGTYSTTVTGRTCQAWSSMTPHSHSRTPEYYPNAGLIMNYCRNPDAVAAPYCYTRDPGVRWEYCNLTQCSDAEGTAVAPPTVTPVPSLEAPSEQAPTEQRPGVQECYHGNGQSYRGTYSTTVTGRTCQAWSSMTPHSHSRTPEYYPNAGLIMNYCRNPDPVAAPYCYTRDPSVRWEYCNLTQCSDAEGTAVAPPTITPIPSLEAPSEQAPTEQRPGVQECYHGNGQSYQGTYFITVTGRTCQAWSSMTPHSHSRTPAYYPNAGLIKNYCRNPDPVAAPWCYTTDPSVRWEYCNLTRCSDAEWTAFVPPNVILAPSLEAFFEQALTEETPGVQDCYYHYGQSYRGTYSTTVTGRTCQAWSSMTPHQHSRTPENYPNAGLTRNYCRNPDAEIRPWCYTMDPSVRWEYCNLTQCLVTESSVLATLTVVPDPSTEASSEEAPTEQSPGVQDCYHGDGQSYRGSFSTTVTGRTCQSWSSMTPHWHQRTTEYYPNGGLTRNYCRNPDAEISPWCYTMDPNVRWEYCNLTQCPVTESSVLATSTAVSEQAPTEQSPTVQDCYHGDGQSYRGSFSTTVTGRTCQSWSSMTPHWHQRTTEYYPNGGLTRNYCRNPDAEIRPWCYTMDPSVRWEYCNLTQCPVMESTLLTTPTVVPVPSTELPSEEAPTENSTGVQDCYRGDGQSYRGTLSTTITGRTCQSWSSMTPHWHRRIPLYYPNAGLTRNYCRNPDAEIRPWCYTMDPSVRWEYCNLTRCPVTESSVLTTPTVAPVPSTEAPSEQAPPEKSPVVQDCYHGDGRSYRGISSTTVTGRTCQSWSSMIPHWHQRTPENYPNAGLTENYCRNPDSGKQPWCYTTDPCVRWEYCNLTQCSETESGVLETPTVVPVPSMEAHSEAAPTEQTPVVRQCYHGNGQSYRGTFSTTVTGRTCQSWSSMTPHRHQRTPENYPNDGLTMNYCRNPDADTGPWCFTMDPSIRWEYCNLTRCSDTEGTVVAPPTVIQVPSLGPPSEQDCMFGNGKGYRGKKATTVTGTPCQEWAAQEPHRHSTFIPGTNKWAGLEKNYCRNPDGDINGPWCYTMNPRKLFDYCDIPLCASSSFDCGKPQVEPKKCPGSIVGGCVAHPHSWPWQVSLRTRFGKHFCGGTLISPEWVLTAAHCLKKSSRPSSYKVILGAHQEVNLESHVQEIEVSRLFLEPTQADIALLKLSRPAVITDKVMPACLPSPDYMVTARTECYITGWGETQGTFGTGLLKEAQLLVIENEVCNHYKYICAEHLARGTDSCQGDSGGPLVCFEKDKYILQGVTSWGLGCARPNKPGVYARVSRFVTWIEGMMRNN

binding [1]: binds
binding [2]: binds
binding [3]: binds
Substance: human apolipoprotein (a) (from UniProt P08519 20-2040)

From patent publication US9018437
